Results are given in words; binding and its absence hold for the method and conditions named. Binding seen in cells or lysates may run through a third protein. Some binding calls cover weakened binding; strength is not graded here. Where a sequence is shown, tags or fusion partners need not be part of it.
Assays:
[1] = biological target: T1, Flag-FRA1 (Flag-FOSL1 construct) (UniProt P15407); test: co-IP; IP-Flag from 293T and DLD1 cells transfected with the indicated plasmids; blot for HDAC6
T1 sequence: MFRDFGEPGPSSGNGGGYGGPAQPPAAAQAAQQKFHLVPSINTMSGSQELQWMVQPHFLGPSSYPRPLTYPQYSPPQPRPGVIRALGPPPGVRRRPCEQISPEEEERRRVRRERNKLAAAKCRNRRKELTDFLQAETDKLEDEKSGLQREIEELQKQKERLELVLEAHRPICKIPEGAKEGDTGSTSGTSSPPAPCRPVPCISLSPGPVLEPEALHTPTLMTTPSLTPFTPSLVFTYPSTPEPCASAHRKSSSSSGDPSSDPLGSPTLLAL

Sequences of proteins named here, by UniProt entry; tags and fusion partners are left off.
UniProt Q9UBN7: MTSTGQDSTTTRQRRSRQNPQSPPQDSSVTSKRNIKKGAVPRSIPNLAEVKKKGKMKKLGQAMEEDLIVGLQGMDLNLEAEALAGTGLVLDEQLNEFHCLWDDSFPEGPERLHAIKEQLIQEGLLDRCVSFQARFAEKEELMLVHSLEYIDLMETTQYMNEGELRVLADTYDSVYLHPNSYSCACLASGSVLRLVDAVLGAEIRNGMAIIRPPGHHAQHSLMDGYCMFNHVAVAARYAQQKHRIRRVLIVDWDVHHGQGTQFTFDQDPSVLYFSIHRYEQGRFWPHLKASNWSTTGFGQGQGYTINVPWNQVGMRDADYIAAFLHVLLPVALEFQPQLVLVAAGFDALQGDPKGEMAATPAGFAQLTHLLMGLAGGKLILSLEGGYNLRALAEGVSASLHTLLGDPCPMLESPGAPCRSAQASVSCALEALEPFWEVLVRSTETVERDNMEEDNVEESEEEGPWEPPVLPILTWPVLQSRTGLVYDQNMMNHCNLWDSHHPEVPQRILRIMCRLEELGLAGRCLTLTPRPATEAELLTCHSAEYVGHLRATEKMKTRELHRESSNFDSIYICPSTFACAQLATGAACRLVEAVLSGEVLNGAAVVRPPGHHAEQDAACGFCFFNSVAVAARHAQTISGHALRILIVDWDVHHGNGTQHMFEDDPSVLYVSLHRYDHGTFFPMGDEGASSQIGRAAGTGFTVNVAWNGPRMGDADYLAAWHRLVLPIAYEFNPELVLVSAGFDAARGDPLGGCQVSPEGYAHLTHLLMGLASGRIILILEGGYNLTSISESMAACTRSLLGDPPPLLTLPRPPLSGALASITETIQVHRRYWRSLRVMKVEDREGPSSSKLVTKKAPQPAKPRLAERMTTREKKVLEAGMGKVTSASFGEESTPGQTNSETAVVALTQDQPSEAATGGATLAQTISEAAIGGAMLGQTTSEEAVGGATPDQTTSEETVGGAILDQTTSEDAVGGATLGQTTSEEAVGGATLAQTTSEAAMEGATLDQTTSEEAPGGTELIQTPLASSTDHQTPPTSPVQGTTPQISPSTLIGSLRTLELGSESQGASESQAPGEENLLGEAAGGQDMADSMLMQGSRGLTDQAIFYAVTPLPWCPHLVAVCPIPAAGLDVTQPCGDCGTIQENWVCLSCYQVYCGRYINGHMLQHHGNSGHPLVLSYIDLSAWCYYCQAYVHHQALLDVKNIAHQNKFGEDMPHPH

[2] = biological target: T1, Flag-FRA1 (Flag-FOSL1 construct); test: co-IP; IP-Flag from DLD1 cells transfected with Flag-FOSL1 and the indicated siRNAs (siNC, siSTAT3), IL-6 stimulation for 3 h; blot for HDAC6

Substance | binding [1] | binding [2]
HDAC6, ectopic (from UniProt Q9UBN7 1-1215) (enzyme) | binds | 
HDAC6, endogenous (from UniProt Q9UBN7 1-1215) (enzyme) |  | binds

— publication PMC6756002
